# In PMC7819943, “Rice protein-binding microarrays: a tool to detect cis-acting elements near promoter regions in rice”:
# This is one part of the list.
# Biological target: T1, OsSMF1 (Oryza sativa, UniProt Q6ZLB0 1-436)
# T1 sequence: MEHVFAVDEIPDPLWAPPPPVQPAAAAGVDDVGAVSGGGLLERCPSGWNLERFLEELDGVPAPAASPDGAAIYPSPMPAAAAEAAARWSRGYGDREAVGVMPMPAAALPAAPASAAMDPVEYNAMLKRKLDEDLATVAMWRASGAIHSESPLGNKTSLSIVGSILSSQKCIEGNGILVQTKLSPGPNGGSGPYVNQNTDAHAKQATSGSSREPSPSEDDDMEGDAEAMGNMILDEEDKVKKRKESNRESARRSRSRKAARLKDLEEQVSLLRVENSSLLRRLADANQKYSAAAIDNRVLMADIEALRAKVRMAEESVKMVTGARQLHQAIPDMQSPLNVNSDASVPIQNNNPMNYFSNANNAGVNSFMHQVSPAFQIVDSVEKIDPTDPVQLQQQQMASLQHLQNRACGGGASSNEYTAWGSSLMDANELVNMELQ
# Experiment: protein-binding microarray (RPBM); PBS, 2% BSA, 51.3 ng/ul salmon testes DNA, 50 uM zinc acetate, 200 nM TF, 25 C, 1 h; high values mean tight binding
# Conditions: protein: recombinant; tags: N-terminal polyhistidine and DsRed monomer fusion (pET32a); chain copies: 2; label: CyDye5-dUTP incorporated in the synthesized complementary strand; 3' TTTTT single-stranded linker to array surface; dsDNA, one strand shown
# Method in brief: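 Transcription factors, each fused N-terminally to a polyhistidine tag and DsRed, were expressed in E. coli BL21-CodonPlus and purified on Ni–NTA. A custom Agilent array was made double-stranded by primer extension with Cy5-dUTP and blocked with 2% BSA. It was incubated with 200 nM protein in PBS, 2% BSA, salmon testes DNA and 50 µM zinc acetate at 25 °C for 1 h, then washed. The binding signal is per-feature fluorescence intensity (arbitrary units) read on an Axon 4000B scanner.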
row,Sequence,binding signal
1,CTCCTCCGCCGCCACTGTGTCGTCCCCGTCCCCGGCTGCCCGGAGTCACCTAGTGCAG,3620 fluorescence intensity (a.u.)
2,CGTGCGCGCGTGCACACCAGTAAAGTGTCTACTCAGCTTCCGGAGTCACCTAGTGCAG,3940 fluorescence intensity (a.u.)
3,CTACTCGTGTACTTCCACACTCCACGCGATGACGCGACACCGGAGTCACCTAGTGCAG,9070 fluorescence intensity (a.u.)
4,AGGTGTTTGGATGGTGGGCAACACTGGGATATGGCCACCACGGAGTCACCTAGTGCAG,3720 fluorescence intensity (a.u.)
5,CGTATCATTGCCATGACGTAGTAGTAACGGACAGTATTCACGGAGTCACCTAGTGCAG,5630 fluorescence intensity (a.u.)
6,GCGCGCGCGTTGTCGTTCGTCGTCGTCTCGCTCGCCGACGCGGAGTCACCTAGTGCAG,7290 fluorescence intensity (a.u.)
7,CATTACAACAAATCTATGTGTCATCACACACATCGATCAACGGAGTCACCTAGTGCAG,5300 fluorescence intensity (a.u.)
8,TATGGATATGCCATGTCATCATTCATGCAAATCTATGATGCGGAGTCACCTAGTGCAG,8500 fluorescence intensity (a.u.)
9,TCTTTTAAATCTTGCTTCTATGCCATGTCAACGTCATGTGCGGAGTCACCTAGTGCAG,9480 fluorescence intensity (a.u.)
10,CATTAATTTTGGCATATACTCTAGCTGTCATGTTTCATTCCGGAGTCACCTAGTGCAG,3360 fluorescence intensity (a.u.)
11,ATGTGTTCAACGCCTCACACTCTAGCAGCCGCGTCAGTCACGGAGTCACCTAGTGCAG,6050 fluorescence intensity (a.u.)
12,TTGCGAGTAAAATTTGAATGATGTGGATGAATCTTAGCCGCGGAGTCACCTAGTGCAG,6260 fluorescence intensity (a.u.)
13,GTCGCCGCCGCTCCTCCACCCCACGTGCCCCTCGTGGTGGCGGAGTCACCTAGTGCAG,4350 fluorescence intensity (a.u.)
14,CGTAACAGGCTAGTGCCCTGCCCTCTGACTCATTTGCGCTCGGAGTCACCTAGTGCAG,8840 fluorescence intensity (a.u.)
15,CCTACACGACTTGTGTTTCGTCATCTTTTCTCATGTATTGCGGAGTCACCTAGTGCAG,4740 fluorescence intensity (a.u.)
16,ATGTACAAGACCTTGTAAACAAGTTTGCATGTCTCAAATACGGAGTCACCTAGTGCAG,3290 fluorescence intensity (a.u.)
17,CTGTTCAGATGAGTAACCCATTTCCACCCATCGTGCCAAGCGGAGTCACCTAGTGCAG,3600 fluorescence intensity (a.u.)
18,GCGCCGCCGCCGTCGTCTCCGCCGCCTCCGGTGGAATCCTCGGAGTCACCTAGTGCAG,23300 fluorescence intensity (a.u.)
19,CACGGTGAAATGCCGTGACGTGGAACCAACCAACCAACAGCGGAGTCACCTAGTGCAG,10400 fluorescence intensity (a.u.)
20,CATATATGCCCATCACCCCAATAAGAGTTCCGAATTAGATCGGAGTCACCTAGTGCAG,3560 fluorescence intensity (a.u.)
21,CCAACGGTCCAGATCGCTTCCACGTCCCACCTCCCTCGATCGGAGTCACCTAGTGCAG,4390 fluorescence intensity (a.u.)
22,ATCTGTTATTTTGGCCAATGTGTGCAGTCACACCAGAAGACGGAGTCACCTAGTGCAG,3880 fluorescence intensity (a.u.)
23,CCGAAAAGCCTCCCCGTCATTAGCCCGGACAGCGACCGGACGGAGTCACCTAGTGCAG,3790 fluorescence intensity (a.u.)
24,ATCGAAACACTAGGCAGGGGTAGGGAGCTACACACACATACGGAGTCACCTAGTGCAG,3550 fluorescence intensity (a.u.)
25,TGTATGCGGCAGTAGGCATAGATGGAGTTCGACCGCGCGTCGGAGTCACCTAGTGCAG,23100 fluorescence intensity (a.u.)
26,CCGTTTCCGAATCTCGAGGCGCAAGAGGCCATCGAACGGCCGGAGTCACCTAGTGCAG,38300 fluorescence intensity (a.u.)
27,TGGTTTTACTCATTCATCATGTCACACATCCACGTCGCCGCGGAGTCACCTAGTGCAG,5240 fluorescence intensity (a.u.)

# Single values from above:
# Value of CGTGCGCGCGTGCACACCAGTAAAGTGTCTACTCAGCTTCCGGAGTCACCTAGTGCAG under binding signal: 3940 fluorescence intensity (a.u.)
# Value of ATCGAAACACTAGGCAGGGGTAGGGAGCTACACACACATACGGAGTCACCTAGTGCAG under binding signal: 3550 fluorescence intensity (a.u.)
# Value of GCGCGCGCGTTGTCGTTCGTCGTCGTCTCGCTCGCCGACGCGGAGTCACCTAGTGCAG under binding signal: 7290 fluorescence intensity (a.u.)

# (next part)

row,Sequence,binding signal
1,GATCTGGGAGCGGCGTCGGCGGTGGCGGTGTCCTCCAGCGCGGAGTCACCTAGTGCAG,3460 fluorescence intensity (a.u.)
2,GCCATAAGTTTCCGTGTCCAACTCATCTTATTTGAAATTTCGGAGTCACCTAGTGCAG,4730 fluorescence intensity (a.u.)
3,GTTTTAGCTGTTAGTGAGTTCTGACGTGTGTTGTGTAACTCGGAGTCACCTAGTGCAG,8230 fluorescence intensity (a.u.)
4,GGGCTCATGATTGGGGATATGGCGGTGTTGGCGAAGAATGCGGAGTCACCTAGTGCAG,3990 fluorescence intensity (a.u.)
5,AGAATTCAATGGTGGTGGTATTGAAGCTGCCATCAACACACGGAGTCACCTAGTGCAG,3440 fluorescence intensity (a.u.)
6,GGACTGGGGAAGACGACACGACATGGGCTGGGCTGGGCTGCGGAGTCACCTAGTGCAG,3520 fluorescence intensity (a.u.)
7,TGGAGGTTGCCGTCGACGTACCACACGTCGACGGCGTTGGCGGAGTCACCTAGTGCAG,4830 fluorescence intensity (a.u.)
8,AACTCTCTCGCACGTGACGTAGCACGTGACAGCTCGCCCACGGAGTCACCTAGTGCAG,8192 fluorescence intensity (a.u.)
9,CGAGTCTCGTGACCTCACGTGACGCTTCCGCCTCTAGCTCCGGAGTCACCTAGTGCAG,3270 fluorescence intensity (a.u.)
10,CAGACCAGTGTAATTCGGCTCTGCCAGCGTGTCAAAATCACGGAGTCACCTAGTGCAG,5800 fluorescence intensity (a.u.)
11,ATGCCCGGCGGCAGCCACGCACAGCGCGCCCCACAGCCGACGGAGTCACCTAGTGCAG,3920 fluorescence intensity (a.u.)
12,GGATGCGTGCGTGGCATTTCTGGACTGGATTCTTTGTGATCGGAGTCACCTAGTGCAG,10400 fluorescence intensity (a.u.)
13,GAGCGGCATGAAGGGTGATGAGCTGATGATGCTGTCGTGGCGGAGTCACCTAGTGCAG,3850 fluorescence intensity (a.u.)
14,TCGCCCGCGTCAGGCCAGGCCACCCGAGCCGCATCGCCCACGGAGTCACCTAGTGCAG,4360 fluorescence intensity (a.u.)
15,TGGAAGCAATGCGAGCAGGGCATCCTCGTCAGCTTCTCTCCGGAGTCACCTAGTGCAG,3460 fluorescence intensity (a.u.)
16,ACCGACGTTTAATCCCTGAGAGCCAGCCGTTGGCTGTGTACGGAGTCACCTAGTGCAG,65500 fluorescence intensity (a.u.)
17,CCCTCCCCTCTGCCCGCGCAAGCCGCAGCAGCAGCATCAGCGGAGTCACCTAGTGCAG,3430 fluorescence intensity (a.u.)
18,GTCGATCTAACGTACGCCTTTGCGTGTCGACGCGGCCTTTCGGAGTCACCTAGTGCAG,5930 fluorescence intensity (a.u.)
19,GAAAGTCAGAAACGGCTGTACGTGTAACCCGCAGGGGCAACGGAGTCACCTAGTGCAG,4910 fluorescence intensity (a.u.)
20,CTGCAAACATACATTAATTGATGCATCCAGAAGAGTTAGACGGAGTCACCTAGTGCAG,28600 fluorescence intensity (a.u.)
21,CTCAACTGCTATGCGAAATTTTCCACGTAGCAGTAGTAGCCGGAGTCACCTAGTGCAG,6050 fluorescence intensity (a.u.)
22,CACATGAGGAAGGCCCATGTGCGTGACTCATCATCCTTCGCGGAGTCACCTAGTGCAG,27500 fluorescence intensity (a.u.)
23,TCAATTTTCCCTGCACCTGCTGGCACGCCATTTCCGTCATCGGAGTCACCTAGTGCAG,3270 fluorescence intensity (a.u.)
24,TCCTTATCCTCTGTCCCAAATAATTATACTCGTCTCTATCCGGAGTCACCTAGTGCAG,3490 fluorescence intensity (a.u.)
25,CCCGCAGTCACAGTGACGTCACCGTTGGCTGCGTACTCGGCGGAGTCACCTAGTGCAG,14400 fluorescence intensity (a.u.)
26,TCGCAAACTCCCAACACATACGTGGCTGAAGCCTCTGAAGCGGAGTCACCTAGTGCAG,9830 fluorescence intensity (a.u.)
27,CACAAAACCACATGTATTATGAAGCGTGGCAAATAATCACCGGAGTCACCTAGTGCAG,4260 fluorescence intensity (a.u.)
